Drawing on PubChem BioAssay AID1487 (National Center for Advancing Translational Sciences (NCATS), 2009), this text covers AC50 for 56 compounds.

The assay can be described thus: qHTS Assay for Modulators of Lamin A Splicing. The following applies: HeLa LMNA splicing GFP/RFP minigene ratio, 48 h. Summed up: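 S3 HeLa stable clones carrying a lamin A-EGFP splicing minigene plus DsRed2 were seeded at 600 cells/well in Opti-MEM with 2% FBS, pin-dosed and incubated 48 h at 37°C. Acumen cytometry (488 nm) gave the GFP/RFP total-intensity ratio.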

Setting [1] is: measured here: RFP viability control channel.
Where [2] appears, read: measured here: GFP splicing reporter channel.

Some of the results follow. Shown are side measurements of this screen, not its main read-out; they come without a call. Most of these compounds were active or inconclusive in the main read-out, so they are no random draw. Potencies come from curve fits of mixed quality, noted in brackets.

Consider `CCNS(=O)(=O)c1ccc(NC(=O)c2ccccc2)cc1`, for which the AC50 under setting [1] was 12.6 µM [rising, single point].

Consider `COc1ccc(Nc2nc(NCC3CCCO3)c3ccccc3n2)c(OC)c1` (centres undefined), for which, under setting [1], the AC50 is 35.5 µM [rising, single point].

For `CCc1ccc(NC(=O)CSc2nc3c(sc4ccccc43)c(=O)n2CCCOC)cc1`, the concentration at half-maximal activity (AC50) under setting [2] was 0.0501 µM [rising, full curve].

Take `O=C(Nc1nnc(-c2ccc(F)cc2)o1)c1cccc([N+](=O)[O-])c1`: the half-maximal activity concentration (AC50) under setting [1] is 10 µM [rising, partial curve].

For `COc1ccc(C(=O)NCC(c2ccc(N(C)C)cc2)N2CCCC2)cc1` (centres undefined), the AC50 under setting [1] is 0.794 µM [falling, single point].

For `CC(C)(C)n1ncc(Oc2ccccc2[N+](=O)[O-])c(Cl)c1=O`, the AC50 under setting [1] is 12.6 µM [rising, partial curve].

Consider `Cc1nn2c(C(F)(F)F)c3c(nc2c1-c1ccccc1)CCC3`, for which the AC50 under setting [2] was 35.5 µM [rising, single point].

For the compound `COc1ccc(COc2cc(-c3cccc(OC)c3)nc3ccc(NC(=O)c4ccc(C)cc4)cc23)cc1`, the AC50 is 15.8 µM [rising, single point] under setting [2] and 12.6 µM [rising, partial curve] under setting [1].

On to `CC/C(=N\n1nnnc1Nc1ccccc1)c1ccccc1`, for which the AC50 reads like this: under setting [2], 14.1 µM [rising, single point]; under setting [1], 22.4 µM [rising, single point].

Turning to `CC(C)c1ccc(Nc2ncnc3c2nc2n3CCCC2)cc1`, under setting [1], the AC50 is 31.6 µM [rising, partial curve].

For the compound `O=C(c1ccc(Cl)cc1)c1ccc(CN2C(=O)c3ccccc3C2=O)o1`, under setting [2], the AC50 was 35.5 µM [rising, single point].

On to `Cc1c(Cl)c(C(=O)NNC(=S)Nc2ccc(F)cc2)nn1C`, for which the concentration at half-maximal activity (AC50) under setting [1] was 0.0316 µM [falling, full curve, poor fit].

For the compound `COc1ccc(Cn2c(O)c(C=Nc3ccc(C)cc3)c3ccccc3c2=O)cc1`, the AC50 runs as follows: under setting [2], 14.1 µM [rising, single point]; under setting [1], 11.2 µM [rising, partial curve].

As to `COc1ccc(NC(=O)Nc2cccc(OCc3cc(=O)n4cccc(C)c4n3)c2)c(OC)c1`, the AC50 is 0.398 µM [rising, full curve, poor fit] under setting [2] and 1.58 µM [rising, partial curve] under setting [1].

Take `O=C1C2C3C=CC(C4CC34)C2C(=O)N1/N=C/c1ccc(-c2ccc([N+](=O)[O-])cc2)o1` (centres undefined): the AC50 under setting [1] is 0.112 µM [falling, full curve, poor fit].

As for `O=S(=O)(c1ccc2[nH]c3c(c2c1)CCCC3)N1CCN(c2cccc(C(F)(F)F)c2)CC1`, the AC50 reads like this: under setting [2], 11.2 µM [rising, single point]; under setting [1], 11.2 µM [rising, partial curve].

Turning to `NC(=O)C1CCN(C(=O)CSc2ccsc2[N+](=O)[O-])CC1`, the half-maximal activity concentration (AC50) under setting [1] is 15.8 µM [rising, single point].

For `COC(=O)c1cccc(S(=O)(=O)N2CCC(NC(=O)NC34CC5CC(CC(C5)C3)C4)CC2)c1`, the AC50 runs as follows: under setting [2], 10 µM [rising, partial curve, poor fit]; under setting [1], 14.1 µM [rising, partial curve].

For `COc1ccc(N/C=C/C(=O)c2sc(-c3ccccc3)nc2C)cc1`, the AC50 runs as follows: under setting [2], 35.5 µM [falling, single point]; under setting [1], 35.5 µM [falling, single point].

As for `S=C(NCc1ccco1)Nc1cc(-c2ccccc2)[nH]n1`, the AC50 under setting [1] was 35.5 µM [falling, single point].

With `COc1ccc(OC)c(C2=Nn3c(nnc3-c3cc(OC)c(OC)c(OC)c3)SC2)c1`, the AC50 under setting [2] was 12.6 µM [rising, partial curve] and the AC50 under setting [1] is 35.5 µM [rising, single point].

Take `CCn1cc(C(=O)N[C@H](C)c2ccccc2)c(=O)c2cc(F)c(N3CCN(C)CC3)cc21`: the concentration at half-maximal activity (AC50) under setting [1] was 22.4 µM [rising, single point].

As for `O=c1oc2ccccc2c(N2CCOCC2)c1[N+](=O)[O-]`, the AC50 under setting [1] was 1.41 µM [falling, partial curve, poor fit].

Regarding `COc1ccc(Oc2cc(Cl)nc(N)n2)cc1`, the AC50 under setting [2] was 0.891 µM [rising, partial curve, poor fit].

On to `S=C(NCc1ccco1)Nc1ccc(Cl)cc1Cl`, for which the AC50 under setting [1] is 22.4 µM [rising, single point].

Regarding `CCOC(=O)C1CCCN(S(=O)(=O)c2cc(Br)cc3c2N(C(=O)C2CC2)CC3)C1` (centres undefined), the AC50 under setting [2] is 14.1 µM [rising, partial curve].

`Cc1ccc(CN2CCN(/N=C\c3cccc([N+](=O)[O-])c3)CC2)cc1`: the AC50 under setting [1] was 35.5 µM [rising, single point].

As to `COc1ccc(/C=C/C(=O)c2ccc(NC3=NCCCS3)cc2)cc1OC`, under setting [1], the AC50 is 28.2 µM [rising, single point].

Consider `CCC(C)(C(=O)NC1CCCC1)N(Cc1ccco1)C(=O)Cc1cccs1` (centres undefined), for which the AC50 under setting [2] was 35.5 µM [rising, single point] and the half-maximal activity concentration (AC50) under setting [1] was 35.5 µM [rising, single point].

For the compound `CC(C)C(NC(=O)C1CCCCC1)C(=O)N1CCN(c2ccc(F)cc2)CC1` (centres undefined), the AC50 under setting [1] is 31.6 µM [rising, single point].

For the compound `CCN(Cc1ccccc1)C(=O)c1cc2c(=O)oc3ccc(C)cc3c2s1`, the AC50 under setting [1] was 1.26 µM [rising, partial curve, poor fit].

Consider `O=C(NCc1cccnc1)c1ccc(CS(=O)(=O)c2ccc(Br)cc2)o1`, for which the AC50 under setting [1] is 10 µM [rising, partial curve].

With `CC(C)OC(=O)c1cn(-c2ccccc2)nc1-c1ccc2c(c1)OCCO2`, the AC50 is, setting by setting: under setting [2], 11.2 µM [rising, partial curve]; under setting [1], 14.1 µM [rising, single point].

On to `CCOc1ccc(NC(C)=O)cc1`, for which the AC50 under setting [1] was 14.1 µM [rising, partial curve].

Regarding `CCN(CC)S(=O)(=O)c1cccc(C(=O)NC(C)C(c2cccs2)N2CCCC2)c1` (centres undefined), under setting [2], the AC50 is 0.02 µM [rising, full curve, poor fit].

On to `CCOc1ccccc1CNC(=O)c1cn(-c2ccc(OC)cc2)c(=O)c2ccccc12`, for which the AC50 under setting [2] was 0.158 µM [rising, full curve, poor fit].

For `Cc1cc(C(=O)Cn2nnc(-c3ccc(Cl)cc3)n2)c(C)n1CC1CCCO1` (centres undefined), the AC50 was 2.82 µM [rising, partial curve, poor fit] under setting [2] and 7.08 µM [rising, full curve] under setting [1].

With `CS(=O)(=O)N(Cc1ccc(Cl)cc1)c1ccc(C(=O)N/N=C/c2cc3ccccc3nc2Cl)cc1`, under setting [1], the AC50 is 8.91 µM [rising, partial curve, poor fit].

For `Cc1cccc(NC(=O)CSc2nc(=O)n(Cc3ccco3)c3c2CCC3)c1C`, the AC50 under setting [2] is 0.0178 µM [rising, full curve, poor fit].

For the compound `Cc1cc(C)cc(NC(=O)C(=O)NCCCN2CCOCC2)c1`, the AC50 under setting [1] is 0.0398 µM [falling, full curve].

For the compound `O=C(CSc1nc2ccccc2o1)N1CCN(c2ccccc2)CC1`, the AC50 reads like this: under setting [2], 5.62 µM [rising, partial curve, poor fit]; under setting [1], 31.6 µM [rising, single point].

Take `O=c1c(N2CCN(c3cccc(Cl)c3)CC2)csc2ccccc12`: the AC50 is 11.2 µM [falling, partial curve] under setting [2] and 20 µM [falling, single point] under setting [1].

As for `COc1cc(/C=C/c2nc3cc(Cl)ccc3c(=O)n2-c2cccc(C(F)(F)F)c2)cc(OC)c1OC`, the AC50 under setting [1] was 6.31 µM [rising, partial curve, poor fit].

With `COc1cc2ncnc(Nc3ccc(F)c(Cl)c3)c2cc1OCCCN1CCOCC1`, the AC50 is 11.2 µM [falling, single point] under setting [2] and 0.000794 µM [rising, full curve, poor fit] under setting [1].

For the compound `Cc1cccc(N2CCN(C(=O)c3ccncc3)CC2)c1C`, the concentration at half-maximal activity (AC50) under setting [1] is 22.4 µM [rising, single point].

For `S=c1[nH]nc(-c2ccc3ccccc3n2)n1Cc1ccccc1`, the AC50 is 0.0891 µM [rising, full curve, poor fit] under setting [2] and 0.178 µM [rising, full curve, poor fit] under setting [1].

Regarding `CCOCCCN(C(=O)Cn1nnc(-c2ccc(OC)c(OC)c2)n1)C(CC)C(=O)NC1CCCC1` (centres undefined), the AC50 under setting [1] is 5.62 µM [falling, single point].

For the compound `Cc1ccc(-n2cc3ccc([N+](=O)[O-])cc3n2)cc1`, under setting [1], the AC50 is 14.1 µM [rising, single point].

For `O=C(c1ccccc1Sc1ccc([N+](=O)[O-])cc1Cl)N1CCOCC1`, the AC50 under setting [2] is 6.31 µM [falling, partial curve, poor fit] and the AC50 under setting [1] was 0.00316 µM [falling, full curve, poor fit].

In the case of `O=c1cc(C(F)(F)F)[nH]c2c(C(F)(F)F)cccc12`, the AC50 under setting [2] was 2.82 µM [rising, partial curve] and the AC50 under setting [1] was 11.2 µM [rising, partial curve].

As to `Nc1nc(SCC(=O)NCc2ccccc2)n[nH]1`, the AC50 reads like this: under setting [2], 5.62 µM [falling, single point]; under setting [1], 5.62 µM [falling, partial curve, poor fit].

With `O=C1C2=C(CCCC2)C(=O)N1CNc1ccccc1`, the AC50 under setting [1] was 0.0708 µM [falling, full curve, poor fit].

As for `Cc1nnc(SCCC(=O)Nc2nc(-c3ccccc3)ns2)s1`, the AC50 under setting [1] was 20 µM [rising, single point].

On to `CC(=O)Nc1ccc2nc(NC(=O)c3ccc([N+](=O)[O-])s3)sc2c1`, for which the half-maximal activity concentration (AC50) under setting [1] is 14.1 µM [falling, partial curve].

Take `Cc1ccc(-c2nc(SCC(=O)N3CCc4ccccc43)c3c(=O)n(C)c(=O)n(C)c3n2)cc1`: under setting [1], the AC50 is 8.91 µM [falling, partial curve].

With `CCOC(=O)C1CCC(CN(Cc2c(Cl)cccc2Cl)S(=O)(=O)c2ccc(Cl)cc2)CC1` (centres undefined), under setting [1], the AC50 was 20 µM [rising, single point].

In general, AC50 refers to the concentration giving half of the maximal activity seen.
